# ± gives the standard deviation. The list shows a part of the results. Many of these values have a large error.
# Tested on: EfPiwi piRISC loaded with L1MC piRNA (26 nt)
# Assay: pre-steady-state target cleavage rate (min^-1); guide: L1MC piRNA 5'p-UAACUAAAUACUAUGCAAGCUGUAGG; MIWI and MILI are mouse PIWI proteins and EfPiwi is from a freshwater sponge; tags in brackets are library labels; higher = faster piRNA-guided slicing of the target
# Settings: auxiliary factor: 500 nM Ephydatia muelleri Gtsf1
# How it was run: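 With or without 500 nM GTSF1 partner protein, 1 nM active affinity-purified piRISC carrying one synthetic guide was mixed with 0.1 nM transcribed, DNA-blocked target RNA library in HEPES–potassium acetate buffer at 33 °C for 0–8 or 0–960 min. Uncleaved targets were sequenced and normalised to depth and to weakly complementary targets, three trials were pooled, and k3 was capped at 0.0001 min^-1. The pre-steady-state cleavage rate came from a burst-and-steady-state fit.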
row,Sequence,pre-steady-state target cleavage rate
1,UCCUGGUACUGCUUGCAUAGUAUUUAGAAA,0.00409 ± 0.0019
2,UCCUGGAACAGCUUGCAUAGUAUUUACAAA,0.00238 ± 0.0019
3,UCCUGGAUCACCUUGCAUAGUAUUUUGUUA,0.00229 ± 0.0037
4,UCCUGCUACAGCUUGGAUAGUAUUUACUUA,0.00152 ± 0.0027
5,UCCUGGUACAGCUUGGCAUAGUAUUUAGUUA,0.05 ± 0.016
6,UCCUGGAUCAGCUUGCAAAGUAUUUACAAA,0.00563 ± 0.0037
7,UCCUGGAACAGCUUGCAAUAGUAUUUAGUUA,0.0183 ± 0.0054
8,UCCUCCUACAGCUUGCAUAGUAUUCUAGUUA,0.00344 ± 0.0019
9,UCCUGGAACAGCAUGCAUAGUAUUUUGUUA,0.00267 ± 0.0022
10,UCCUGGUACAGCUUGCAUAGUAUAUAGAUA,0.0017 ± 0.003
11,UCCUGGAUGUCGAACGUAUCUAAUUUGUUA,0.000535 ± 0.011
12,UCCUGGAUGAGCUAGCAUAGUAUUUACUUA,0.000894 ± 0.004
13,UCCUGGAUGAGCUUGCAUAGUUUAUAGUUA,0.000576 ± 0.0056
14,UCCUGCUACAGCUUGCAUAGUAUUUUGAUA,0.00307 ± 0.0023
15,UCCUGGUACAGCUUGCAUAGUAAAAUCAAA,0.00181 ± 0.0037
16,UCCUGGAUGAGCUUGCAUAGUAUUUACUUA,0.00272 ± 0.0032
17,UCCUGGAUGUGCUUGCAAAGUAUUUAGAAA,0.000889 ± 0.0038
18,UCCUGGAUGAGCUUGCAAAGUAUUUAGAUA,0.00201 ± 0.0032
19,UCCUGGAUGAGCUUGCAUAGUAUAAAGUUA,0.00848 ± 0.0042
20,UCCUGCUACAGCUUGCAUAGUAUAUAGUAA,0.00354 ± 0.0018

row,Sequence,pre-steady-state target cleavage rate
1,UCCUGGAACAGCUUGCAUAGUAUAAUCAAA,0.00171 ± 0.0031
2,UCCUGGUACAGCUAGCAUAGUAUUUACUUA,0.00108 ± 0.0036
3,UCCUGGAUGAGCUUGCAUAGUAUAUAGAUA,0.00245 ± 0.0025
4,UCCUGCUACAGCUUGCAUACUAUUUAGAUA,0.00382 ± 0.002
5,UCCUCCUACAGCUUCCAUAGUAUUUAGUUA,0.0042 ± 0.0019
6,UCCUGGUACAGCUUGCAAAGUAUUUAGAUA,0.00431 ± 0.0026
7,UCCUCCUUCAGCUUCCAUAGUAUUUAGUUA,0.00448 ± 0.0019
8,UCCUGGAUCAGCUUGCAUAGUAUAUAGAUA,0.00301 ± 0.0023
9,UCCUGGAUGAGCUUGCAUACUAUUUACUUA,0.00156 ± 0.0025
10,UCCUGGAACAGCUUGCUAAGUAUUUAGUAA,0.000936 ± 0.0043
11,UCCUGGUACAGCUUGCAUAGUUUUUAGAUA,0.0023 ± 0.0041
12,UCCUGGUACAGCUUGCUUAGAAUUUAGUUA,0.000699 ± 0.016
13,UCCUGCUACAGCUUGCAUAGUAUUUAGUGUA,0.00597 ± 0.0021
14,UCCUGGAACAGCUUGCAUAGUAUUAUCAAA,0.000895 ± 0.005
15,UCCUGCUACAGCUUGCAUAGAAUUUUGUUA,0.00457 ± 0.0019
16,UCCUGGAACAGCUUGCGAUAGUAUUUAGUUA,0.00523 ± 0.0018
17,UCCUGCUACAGCUUGCAUAGUAUUUUCUUA,0.00359 ± 0.002
18,UCCUCCUACAGCUUGCAUUGUAUUUAGAAA,0.00363 ± 0.0015
19,UCCUGGAACAGCUUGCAUAGAAUUUAGAUA,0.00187 ± 0.0015
20,UCCUGCUUGAGCUUGCAUAGUAUUUAGAAA,0.00479 ± 0.0016

# Same assay, conditions: auxiliary factor: none (no Gtsf1)
row,Sequence,pre-steady-state target cleavage rate
1,UCCUGGUACUGCUUGCAUAGUAUUUAGAAA,0.000547 ± 0.013
2,UCCUGGAACAGCUUGCAUAGUAUUUACAAA,0.000697 ± 0.01
3,UCCUGGAUCACCUUGCAUAGUAUUUUGUUA,0.000607 ± 0.014
4,UCCUGCUACAGCUUGGAUAGUAUUUACUUA,0.00012 ± 0.04
5,UCCUGGUACAGCUUGGCAUAGUAUUUAGUUA,0.00142 ± 0.008
6,UCCUGGAUCAGCUUGCAAAGUAUUUACAAA,0.000455 ± 0.017
7,UCCUGGAACAGCUUGCAAUAGUAUUUAGUUA,0.00109 ± 0.0075
8,UCCUCCUACAGCUUGCAUAGUAUUCUAGUUA,0.000314 ± 0.016
9,UCCUGGAACAGCAUGCAUAGUAUUUUGUUA,0.000412 ± 0.019
10,UCCUGGUACAGCUUGCAUAGUAUAUAGAUA,0.0003 ± 0.032
11,UCCUGGAUGUCGAACGUAUCUAAUUUGUUA,0.000163 ± 0.026
12,UCCUGGAUGAGCUAGCAUAGUAUUUACUUA,0.000861 ± 0.012
13,UCCUGGAUGAGCUUGCAUAGUUUAUAGUUA,0.000466 ± 0.017
14,UCCUGCUACAGCUUGCAUAGUAUUUUGAUA,0.000509 ± 0.011
15,UCCUGGUACAGCUUGCAUAGUAAAAUCAAA,0.000347 ± 0.026
16,UCCUGGAUGAGCUUGCAUAGUAUUUACUUA,0.000473 ± 0.014
17,UCCUGGAUGUGCUUGCAAAGUAUUUAGAAA,0.000675 ± 0.013
18,UCCUGGAUGAGCUUGCAAAGUAUUUAGAUA,0.000431 ± 0.021
19,UCCUGGAUGAGCUUGCAUAGUAUAAAGUUA,0.00076 ± 0.01
20,UCCUGCUACAGCUUGCAUAGUAUAUAGUAA,0.000367 ± 0.012

row,Sequence,pre-steady-state target cleavage rate
1,UCCUGGAACAGCUUGCAUAGUAUAAUCAAA,0.000487 ± 0.017
2,UCCUGGUACAGCUAGCAUAGUAUUUACUUA,0.000362 ± 0.02
3,UCCUGGAUGAGCUUGCAUAGUAUAUAGAUA,0.00063 ± 0.018
4,UCCUGCUACAGCUUGCAUACUAUUUAGAUA,0.000362 ± 0.015
5,UCCUCCUACAGCUUCCAUAGUAUUUAGUUA,0.000304 ± 0.015
6,UCCUGGUACAGCUUGCAAAGUAUUUAGAUA,0.000651 ± 0.011
7,UCCUCCUUCAGCUUCCAUAGUAUUUAGUUA,0.000337 ± 0.012
8,UCCUGGAUCAGCUUGCAUAGUAUAUAGAUA,0.000518 ± 0.015
9,UCCUGGAUGAGCUUGCAUACUAUUUACUUA,0.000158 ± 0.045
10,UCCUGGAACAGCUUGCUAAGUAUUUAGUAA,0.00051 ± 0.013
11,UCCUGGUACAGCUUGCAUAGUUUUUAGAUA,0.000669 ± 0.019
12,UCCUGGUACAGCUUGCUUAGAAUUUAGUUA,0.000267 ± 0.041
13,UCCUGCUACAGCUUGCAUAGUAUUUAGUGUA,0.000521 ± 0.009
14,UCCUGGAACAGCUUGCAUAGUAUUAUCAAA,0.000342 ± 0.021
15,UCCUGCUACAGCUUGCAUAGAAUUUUGUUA,0.00041 ± 0.018
16,UCCUGGAACAGCUUGCGAUAGUAUUUAGUUA,0.000477 ± 0.021
17,UCCUGCUACAGCUUGCAUAGUAUUUUCUUA,0.000791 ± 0.011
18,UCCUCCUACAGCUUGCAUUGUAUUUAGAAA,0.000349 ± 0.012
19,UCCUGGAACAGCUUGCAUAGAAUUUAGAUA,0.000241 ± 0.033
20,UCCUGCUUGAGCUUGCAUAGUAUUUAGAAA,0.000618 ± 0.011

# Reference: the supplement of paper PMC10338343
